Reference: PubChem BioAssay AID743454 (Peter MacCallum Cancer Centre, 2014)
Here is a random part of about 18,000 reagents. 450 of them (2.5%) were called active. 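Single biological run; no consistent viability z cut-off exists, so the class columns, not z-scores, define the calls.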 Reagent sequences are not shown.

Aim: 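Knock-downs lowering viability or raising caspase 3/7 activity in vorinostat-treated resistant cells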 (primary screen)
Cells: human HCT116-VR colon cancer cells, selected for vorinostat resistance
Reagent: siRNA pool against human genes, 40 nM siRNA pool
Time to read-out: vorinostat for 24 h, read-out about 72 h after transfection
Conditions: vorinostat at 2.5 µM final
Measurement: 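Cell viability by CellTiter-Fluor and caspase 3/7 activity by luminescence, each scaled to mock wells per plate, duplicates averaged, then robust z-scored over all plates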
Direction: viability robust z-score: higher = more viable cells than screen typical; caspase robust z-score: higher = more caspase 3/7 activity than screen typical
Call rule: 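a knock-down is a hit when classed RV1 or RV2 for lowered viability, or CA1 or CA2 for caspase activation; those lethal without drug were dropped; hits were retested singly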

The opening 4 records, to show the layout:
gene,PubChem SID,viability hit class,caspase hit class,viability robust z-score,caspase robust z-score,Outcome
KATNAL2,SID134329981,no change,no change,0.01,-0.2,inactive
IL6R,SID134312928,no change,no change,1.49,0.9,inactive
BNC1,SID152154355,no change,no change,0.42,-0.7,inactive
PPP4R3A,SID135623674,no change,no change,0.68,0.2,inactive

Main list, repeating the preview:
gene,PubChem SID,viability hit class,caspase hit class,viability robust z-score,caspase robust z-score,Outcome
KATNAL2,SID134329981,no change,no change,0.01,-0.2,inactive
IL6R,SID134312928,no change,no change,1.49,0.9,inactive
BNC1,SID152154355,no change,no change,0.42,-0.7,inactive
PPP4R3A,SID135623674,no change,no change,0.68,0.2,inactive
CALCRL,SID152148113,no change,no change,0.81,-0.76,inactive
PCDHA2,SID135622489,no change,no change,-1.02,-0.78,inactive
DDX47,SID134320298,no change,no change,-1.44,-0.46,inactive
UTRN,SID152154412,no change,no change,0.77,-0.64,inactive
ERF,SID152151579,no change,no change,-0.21,-0.58,inactive
SMYD3,SID134317946,no change,no change,0.6,1.52,inactive
ASMT,SID152156009,no change,no change,0.24,3.07,inactive
MYNN,SID152152300,no change,no change,0.83,0.04,inactive
LYZL6,SID152156520,no change,no change,0.06,-0.42,inactive
METTL27,SID134324910,no change,no change,0.14,-1.28,inactive
FOXJ2,SID135621755,no change,no change,0.38,-0.55,inactive
PILRA,SID134322836,no change,no change,0.45,-0.51,inactive
PRSS21,SID135620726,no change,no change,-0.61,-0.03,inactive
BRD10,SID152155475,no change,no change,-0.4,-0.86,inactive
STAT6,SID134311958,no change,no change,-1.97,-0.52,inactive
NIPBL,SID135622430,no change,no change,0.79,-0.73,inactive
HDDC3,SID152155652,no change,no change,0.73,-0.62,inactive
KRTCAP3,SID134321668,no change,no change,0.74,-0.23,inactive
ARF4,SID135622152,no change,no change,0.34,-0.38,inactive
ZMYND11,SID134312062,no change,no change,0.66,-0.46,inactive
EPB41L4A,SID135624177,no change,no change,0.52,-0.66,inactive
CNKSR2,SID134324135,no change,no change,0.26,-0.1,inactive
TTBK1,SID135620866,no change,no change,-1.58,-0.76,inactive
IP6K2,SID56479106,no change,no change,-0.1,3.87,inactive
FAM241B,SID135623123,no change,no change,0.06,0.55,inactive
FHIP2A,SID135624558,no change,no change,1.36,-0.8,inactive
EAPP,SID152147008,no change,no change,1.25,-0.86,inactive
MOV10L1,SID134317614,no change,no change,0.04,0.64,inactive
CHEK1,SID152148697,no change,no change,-0.73,1.82,inactive
TMEM254,SID134322775,no change,no change,-0.62,-0.96,inactive
FGL2,SID152151694,no change,no change,1.15,-0.16,inactive
MAST1,SID135620865,no change,no change,2.64,0.03,inactive
YBX1,SID152153637,no change,no change,0.4,0.6,inactive
TMEM218,SID135624573,no change,no change,-0.34,-0.76,inactive
BDH1,SID152151086,no change,no change,0.35,-0.32,inactive
IFT43,SID135622897,no change,no change,-0.17,0.04,inactive
FGF4,SID134310136,no change,no change,-0.4,0.3,inactive
TNK1,SID152152407,no change,no change,-0.69,2,inactive
AASDHPPT,SID134313348,no change,no change,0.02,-0.02,inactive
CD207,SID152149786,no change,no change,-3.04,1.36,inactive
ZNF875,SID134322719,no change,no change,0.61,-0.87,inactive
APAF1,SID135620680,no change,no change,-1.44,-1.06,inactive
LYSMD2,SID134319751,no change,no change,1.76,0.15,inactive
CASC3,SID152147336,no change,no change,-0.02,-0.81,inactive
GRIK5,SID134311612,no change,no change,-0.88,3.54,inactive
SMIM29,SID152150319,no change,no change,0.4,-0.4,inactive
OR10K1,SID134329872,no change,no change,1.29,0.36,inactive
OR2A2,SID152152309,no change,no change,-1.88,1.23,inactive
PAPSS1,SID56479195,no change,no change,0.77,-0.34,inactive
HHLA2,SID134321588,no change,no change,-0.06,-0.46,inactive
KDF1,SID135622973,no change,no change,-2.59,0.88,inactive
PSMB7,SID134311443,no change,no change,-4.05,2.35,inactive
PLCL2,SID152150810,no change,no change,0.98,1.17,inactive
OR6K2,SID134329899,no change,no change,0.36,-0.9,inactive
FGD5,SID152156075,no change,no change,1.06,1,inactive
ARL1,SID134323067,no change,no change,0.58,-0.32,inactive
PIP4K2A,SID135621253,no change,no change,0.97,0.5,inactive
DAZ4,SID152156010,no change,no change,-0.02,-0.41,inactive
STX16,SID152148609,no change,no change,0.96,-1.03,inactive
MAPK13,SID56478704,no change,no change,-0.04,-0.22,inactive
TUBA1A,SID134317384,no change,no change,-3.68,0.54,inactive
GNG4,SID152153953,no change,no change,-0.4,1.86,inactive
PLXNB1,SID134323368,no change,no change,-3.87,1.36,inactive
SPHK1,SID152154122,no change,no change,0.79,0.24,inactive
DNAJC7,SID135623773,no change,no change,-0.7,-0.05,inactive
MYOC,SID135622051,no change,no change,0.56,-0.64,inactive
POTEA,SID135625260,no change,no change,0.21,-0.48,inactive
CCDC149,SID135623513,no change,no change,0.4,0.25,inactive
OR13F1,SID152155308,no change,no change,0.05,0.24,inactive
